No constants are given. Whether binding was seen depends on the method and setting. In cells and extracts the contact can be indirect. Some binding calls cover weakened binding; strength is not graded here.
Tests used:
[1] = target: FOXO3a (endogenous) (human (endogenous in BT474 and T47D)) (UniProt O43524); assay: condition: only cells treated with AKTi (1 μM) for 4 day; co-IP; endogenous proteins from BT474 and T47D cells treated with AKTi (MK2206, AZD5363 or GSK690693, 1 μM); IP with FOXO3a or AKT antibody, western blot for SirT6
[2] = target: FOXO3a (endogenous) (human (endogenous in BT474 and T47D)) (UniProt O43524); assay: co-IP; endogenous proteins from BT474 and T47D cell extracts; IP buffer 50 mM Tris-HCl pH 7.4, 150 mM NaCl, 0.2 mM EDTA, 0.2% NP40, 10% glycerol; IP with FOXO3a or AKT antibody and Protein G-Sepharose, western blot; cells untreated or treated with AKTi (1 μM, up to 4 days), TSA (2 μM) + nicotinamide (4 mM) overnight, or Lapatinib (1 μM, 4 days)
[3] = target: HA-tagged FOXO3a, wild type (UniProt O43524); assay: co-IP; FOXO3a (WT or TM) and Flag-SirT6 (WT or S338 mutants) expressed in HEK293 cells treated with 1 μM MK2206; IP of FOXO3a, western blot with anti-Flag
[4] = target: HA-tagged FOXO3a, wild type (UniProt O43524); assay: co-IP; tagged proteins co-expressed in HEK293 cells; IP with anti-HA (FOXO3a), western blot with anti-Flag; for BRD4, BD1 and BD2 cells treated with 1 μM MK2206 for 2 days or 2 μM TSA + 4 mM nicotinamide overnight; for Sirt members cells without AKTi
[5] = target: FOXO3a TM mutant (T32, S253 and S315 changed to alanine) (UniProt O43524); assay: co-IP; FOXO3a (WT or TM) and Flag-SirT6 (WT or S338 mutants) expressed in HEK293 cells treated with 1 μM MK2206; IP of FOXO3a, western blot with anti-Flag
[6] = target: FOXO3a TM mutant (T32, S253 and S315 changed to alanine) (UniProt O43524); assay: co-IP; tagged proteins co-expressed in HEK293 cells; IP with anti-HA (FOXO3a), western blot with anti-Flag; for BRD4, BD1 and BD2 cells treated with 1 μM MK2206 for 2 days or 2 μM TSA + 4 mM nicotinamide overnight; for Sirt members cells without AKTi

The chains behind the UniProt entries cited, without tags or fusion partners. Where a name states a change or a piece, a line headed by the entry shows the natural chain unless it says otherwise. A line that says so, or that is headed by a name, gives the form on record, which may keep a tag or linker.
UniProt O43524: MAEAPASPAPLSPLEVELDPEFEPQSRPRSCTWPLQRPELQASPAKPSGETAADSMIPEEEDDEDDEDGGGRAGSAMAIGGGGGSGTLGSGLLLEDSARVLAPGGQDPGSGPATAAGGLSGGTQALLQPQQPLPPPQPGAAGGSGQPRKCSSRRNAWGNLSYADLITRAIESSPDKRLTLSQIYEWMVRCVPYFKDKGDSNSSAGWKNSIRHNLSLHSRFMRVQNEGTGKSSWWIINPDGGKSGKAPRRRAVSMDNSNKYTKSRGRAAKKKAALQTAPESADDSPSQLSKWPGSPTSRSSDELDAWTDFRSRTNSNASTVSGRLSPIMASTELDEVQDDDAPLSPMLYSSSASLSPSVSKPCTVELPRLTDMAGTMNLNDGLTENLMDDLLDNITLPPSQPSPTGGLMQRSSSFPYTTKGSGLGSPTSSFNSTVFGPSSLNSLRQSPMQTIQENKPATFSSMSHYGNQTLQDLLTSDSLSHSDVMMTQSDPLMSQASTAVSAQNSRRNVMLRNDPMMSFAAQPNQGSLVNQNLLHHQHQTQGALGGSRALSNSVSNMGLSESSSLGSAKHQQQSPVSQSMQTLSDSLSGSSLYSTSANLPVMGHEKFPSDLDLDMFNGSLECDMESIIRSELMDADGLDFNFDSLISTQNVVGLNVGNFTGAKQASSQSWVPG
FOXO3a TM mutant (T32, S253 and S315 changed to alanine) (O43524, form named): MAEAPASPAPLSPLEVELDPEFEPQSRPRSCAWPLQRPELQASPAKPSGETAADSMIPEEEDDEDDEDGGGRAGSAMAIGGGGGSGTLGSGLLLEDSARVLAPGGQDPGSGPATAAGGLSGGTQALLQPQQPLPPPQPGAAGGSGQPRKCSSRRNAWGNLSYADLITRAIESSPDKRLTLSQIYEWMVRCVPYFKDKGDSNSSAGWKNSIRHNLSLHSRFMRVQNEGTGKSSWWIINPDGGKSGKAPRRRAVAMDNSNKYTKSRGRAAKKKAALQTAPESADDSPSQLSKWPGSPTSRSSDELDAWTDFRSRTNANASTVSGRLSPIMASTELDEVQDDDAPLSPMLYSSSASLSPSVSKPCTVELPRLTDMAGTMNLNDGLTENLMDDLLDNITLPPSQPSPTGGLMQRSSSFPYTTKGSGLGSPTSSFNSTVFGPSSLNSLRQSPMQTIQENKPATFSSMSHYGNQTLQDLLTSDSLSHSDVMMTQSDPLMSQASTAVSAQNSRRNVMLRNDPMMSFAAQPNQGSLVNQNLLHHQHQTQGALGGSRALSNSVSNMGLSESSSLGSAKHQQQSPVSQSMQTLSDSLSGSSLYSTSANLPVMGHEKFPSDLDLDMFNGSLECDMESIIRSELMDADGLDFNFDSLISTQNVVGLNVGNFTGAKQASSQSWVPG
UniProt Q8N6T7: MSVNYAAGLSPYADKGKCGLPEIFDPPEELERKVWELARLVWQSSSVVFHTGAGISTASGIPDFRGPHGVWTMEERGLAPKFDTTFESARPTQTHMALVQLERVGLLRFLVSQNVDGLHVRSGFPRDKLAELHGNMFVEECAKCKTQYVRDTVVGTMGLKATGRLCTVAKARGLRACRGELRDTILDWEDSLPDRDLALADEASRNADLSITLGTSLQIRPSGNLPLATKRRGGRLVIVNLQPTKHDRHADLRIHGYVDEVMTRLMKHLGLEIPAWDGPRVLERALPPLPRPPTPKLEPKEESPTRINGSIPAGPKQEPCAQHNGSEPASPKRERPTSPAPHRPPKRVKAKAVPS

Row | Substance | binding [1] | binding [2] | binding [3] | binding [4] | binding [5] | binding [6]
1 | SirT6 (endogenous) (from UniProt Q8N6T7 1-355) | no binding | binds |  |  |  | 
2 | SirT6 S338E mutant (from UniProt Q8N6T7 1-355) |  |  | binds | binds |  | 
3 | Flag-tagged SirT6, wild type (from UniProt Q8N6T7 1-355) |  |  | binds | binds | no binding (condition: cells treated with 1 μM MK2206) | binds
